Experimental findings from PMC10577452 are described below.

By UniProt entry, the sequences of proteins in these tests, tags left out. Residues count along the entry.
UniProt P78504, residues 34-1218: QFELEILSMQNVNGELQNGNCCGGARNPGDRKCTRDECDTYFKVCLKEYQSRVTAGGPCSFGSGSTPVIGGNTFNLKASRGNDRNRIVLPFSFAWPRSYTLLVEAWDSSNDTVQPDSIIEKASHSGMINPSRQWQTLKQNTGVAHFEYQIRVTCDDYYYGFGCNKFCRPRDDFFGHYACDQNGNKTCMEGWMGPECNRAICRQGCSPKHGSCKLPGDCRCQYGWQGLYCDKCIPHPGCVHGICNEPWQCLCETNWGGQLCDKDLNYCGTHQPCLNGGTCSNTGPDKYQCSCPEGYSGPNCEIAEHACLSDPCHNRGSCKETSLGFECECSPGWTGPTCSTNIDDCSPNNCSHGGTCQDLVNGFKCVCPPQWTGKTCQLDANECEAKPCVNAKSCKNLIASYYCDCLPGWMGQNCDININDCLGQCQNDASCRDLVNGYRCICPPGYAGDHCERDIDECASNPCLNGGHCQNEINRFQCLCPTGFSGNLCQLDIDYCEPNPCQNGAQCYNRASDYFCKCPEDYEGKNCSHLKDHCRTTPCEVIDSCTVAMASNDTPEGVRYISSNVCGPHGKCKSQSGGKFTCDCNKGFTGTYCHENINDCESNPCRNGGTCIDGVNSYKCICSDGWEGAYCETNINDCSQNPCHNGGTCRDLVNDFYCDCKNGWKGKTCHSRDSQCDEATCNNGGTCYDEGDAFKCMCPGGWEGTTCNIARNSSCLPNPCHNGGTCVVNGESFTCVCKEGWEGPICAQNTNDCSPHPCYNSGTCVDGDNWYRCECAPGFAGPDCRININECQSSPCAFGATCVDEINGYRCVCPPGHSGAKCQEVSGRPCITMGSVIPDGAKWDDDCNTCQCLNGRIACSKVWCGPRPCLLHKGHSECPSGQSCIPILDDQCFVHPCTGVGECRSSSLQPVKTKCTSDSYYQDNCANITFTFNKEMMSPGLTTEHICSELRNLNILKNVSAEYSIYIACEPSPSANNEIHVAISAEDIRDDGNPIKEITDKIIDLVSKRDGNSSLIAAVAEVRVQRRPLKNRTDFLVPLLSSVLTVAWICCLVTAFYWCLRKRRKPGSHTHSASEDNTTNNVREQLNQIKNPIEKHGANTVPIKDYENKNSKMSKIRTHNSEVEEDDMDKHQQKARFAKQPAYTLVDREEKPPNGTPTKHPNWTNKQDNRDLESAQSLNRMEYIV

These are yes or no findings as the source states them, for the method shown. Binding seen in cells or lysates may run through a third protein. Some binding calls cover weakened binding; strength is not graded here. Tags and fused reporters may be left off the sequences shown.

Assay [1] addresses T1, Flag-Neuralized (neuralized-like 1, Neurl1) (UniProt O76050).
T1 sequence: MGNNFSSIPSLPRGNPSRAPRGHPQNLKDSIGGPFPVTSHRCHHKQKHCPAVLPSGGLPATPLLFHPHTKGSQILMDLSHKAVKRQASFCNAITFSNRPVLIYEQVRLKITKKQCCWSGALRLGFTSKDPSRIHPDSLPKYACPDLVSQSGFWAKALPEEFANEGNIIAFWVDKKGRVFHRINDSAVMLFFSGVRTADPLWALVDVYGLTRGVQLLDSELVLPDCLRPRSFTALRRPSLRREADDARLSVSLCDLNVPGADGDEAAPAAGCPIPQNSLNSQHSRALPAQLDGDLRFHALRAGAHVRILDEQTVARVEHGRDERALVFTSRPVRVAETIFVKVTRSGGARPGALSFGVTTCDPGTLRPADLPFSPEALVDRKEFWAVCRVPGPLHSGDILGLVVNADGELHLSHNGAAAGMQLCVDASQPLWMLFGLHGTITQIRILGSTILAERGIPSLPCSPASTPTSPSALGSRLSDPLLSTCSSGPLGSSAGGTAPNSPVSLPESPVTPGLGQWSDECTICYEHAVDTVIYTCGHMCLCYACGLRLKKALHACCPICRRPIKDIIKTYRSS
Kind of assay: co-IP; HEK293 cells transfected with HA-Jagged1 and Flag-Neuralized, proteins collected 12, 24, 36 and 48 h after transfection; lysate precipitated with primary antibody and agarose beads, western blot; precipitating antibody not stated. Background: A western blot detects proteins with antibodies after separation by electrophoresis.

Assay [2] deals with T1, Flag-Neuralized (neuralized-like 1, Neurl1). Description: co-IP; HEK293 cells transfected with 600 ng HA-Jagged1, 400 ng Flag-Neuralized and 0, 40 or 80 ng pcDNA3.1-Neuritin for 24 h; IP and western blot for Jagged1.

With “HA-Jagged1 (from UniProt P78504 34-1218) (ligand)”, the binding result in assay [1] and in assay [2] was “binds” in each case.
